Patent US5326882A, “Chemiluminescent 3-(substituted Adamant-2'-Ylidene) 1,2-dioxetanes” (Tropix, Inc., priority 1992, dated 1994)

Columns and labels:
Format in all cases: physicochemical
[1] = Non-specific (thermal) background (Example XLI); settings: 0.4 mM dioxetane at pH 10.0, 31.5° C., no enzyme
[2] = Background signal in two buffers, Turner 20E (Example XVIII); settings: 1 mM Magnesium Chloride
[3] = Thermal background (Example XXI); settings: 0.1 M diethanolamine, 1 mM MgCl2, pH 10.0 at 30° C., no enzyme
[4] = 0.05 M Sodium Carbonate/Sodium Bicarbonate, pH 9.5
[5] = 0.1 M Diethanolamine, 0.02% Sodium Azide, pH 10.0

SMILES | NON-SPECIFIC BACKGROUND 0.4 mM RELATIVE LUMINOMETER UNITS [1] | BACKGROUND AT 0.4 mM (TLU) [3] [TLU] | further results
COC1(c2cccc(OP(=O)(O)O)c2)OOC12C1CC3CC2CC(O)(C3)C1 (single isomer, unassigned) [A-OH-AMPPD, disodium 3-(4-methoxyspiro-[1,2-dioxetane-3,2'-(5'-hydroxy)tricyclo[3.3.1.1^3,7]decan]-4-yl)phenyl phosphate] |  |  | NON-SPECIFIC BACKGROUND 0.4 mM RELATIVE LUMINOMETER UNITS ([1]; listed as HO-AMPPD-A): 0.92 RELATIVE LUMINOMETER UNITS; BACKGROUND AT 0.4 Mn (TLU) [2, 4]: 1.20 TLU; BACKGROUND AT 0.4 Mn (TLU) [2, 5]: 0.95 TLU
COC1(c2cccc(OP(=O)(O)O)c2)OOC12C1CC3CC2CC(O)(C3)C1 (single isomer, unassigned) [B-OH-AMPPD, disodium 3-(4-methoxyspiro-[1,2-dioxetane-3,2'-(5'-hydroxy)tricyclo[3.3.1.1^3,7]decan]-4-yl)phenyl phosphate] |  |  | NON-SPECIFIC BACKGROUND 0.4 mM RELATIVE LUMINOMETER UNITS ([1]; listed as HO-AMPPD-B): 1.35 RELATIVE LUMINOMETER UNITS; BACKGROUND AT 0.4 Mn (TLU) [2, 4]: 1.72 TLU; BACKGROUND AT 0.4 Mn (TLU) [2, 5]: 1.32 TLU
COC12CC3CC(C1)C1(OOC1(OC)c1cccc(OP(=O)(O)O)c1)C(C3)C2 (single isomer, unassigned) [CH3 O-AMPPD-A] | 0.83 RELATIVE LUMINOMETER UNITS |  | 
COC1(c2cccc(OP(=O)(O)O)c2)OOC12C1CC3CC2CC(O)(C3)C1 (single isomer, unassigned) [HO-AMPPD] |  | 0.83 | 
COC1(c2cccc(OP(=O)(O)O)c2)OOC12C1CC3CC2CC(I)(C3)C1 (single isomer, unassigned) [ISPD-A] | 0.47 RELATIVE LUMINOMETER UNITS |  | 
COC1(c2cccc(OP(=O)(O)O)c2)OOC12C1CC3CC2CC(I)(C3)C1 (single isomer, unassigned) [ISPD-B] | 0.37 RELATIVE LUMINOMETER UNITS |  | 
COC1(c2cccc(OP(=O)(O)O)c2)OOC12C1CC3CC2CC(OC(C)C)(C3)C1 (single isomer, unassigned) [i-PrO-AMPPD-A] | 0.98 RELATIVE LUMINOMETER UNITS |  | 
COC1(c2cccc(OP(=O)(O)O)c2)OOC12C1CC3CC2CC(OC(C)C)(C3)C1 (single isomer, unassigned) [i-PrO-AMPPD-B] | 1.74 RELATIVE LUMINOMETER UNITS |  | 
COC1(c2cccc(OP(=O)(O)O)c2)OOC12C1CC3CC(C1)CC2C3 (stereo not shown) [AMPPD, 3-(4-methoxyspiro[1,2-dioxetane-3,2'-triyclo[3.3.1.1^3,7]decan]-4-yl)phenyl phosphate, reference compound] | 1.95 RELATIVE LUMINOMETER UNITS | 1.83 | BACKGROUND AT 0.4 Mn (TLU) [2, 4]: 1.96 TLU; BACKGROUND AT 0.4 Mn (TLU) [2, 5]: 2.09 TLU
COC1(c2cccc(OP(=O)(O)O)c2)OOC12C1CC3CC2CC(Br)(C3)C1 (stereo not shown) [Br-AMPPD, disodium 3-(4-methoxyspiro-[1,2-dioxetane-3,2'-(5'-bromo)tricyclo[3.3.1.1^3,7]decan]-4-yl) phenyl phosphate] |  | 0.78 | BACKGROUND AT 0.4 Mn (TLU) [2, 4]: 1.35 TLU; BACKGROUND AT 0.4 Mn (TLU) [2, 5]: 1.13 TLU
COC1(c2cccc(OP(=O)(O)O)c2)OOC12C1CC3CC2CC(Br)(C3)C1 (stereo not shown) [BrSPD] | 0.93 RELATIVE LUMINOMETER UNITS |  | 
COC12CC3CC(C1)C1(OOC1(OC)c1cccc(OP(=O)(O)O)c1)C(C3)C2 (stereo not shown) [CH3 O--AMPPD] |  | 0.71 | 
COC1(c2cccc(OP(=O)(O)O)c2)OOC12C1CC3CC2CC(Cl)(C3)C1 (stereo not shown) [CSPD] | 0.96 RELATIVE LUMINOMETER UNITS |  | 
COC1(c2cccc(OP(=O)(O)O)c2)OOC12C1CC3CC2CC(Cl)(C3)C1 (stereo not shown) [Cl-AMPPD, disodium 3-(4-methoxyspiro-[1,2-dioxetane-3,2'-(5'-chloro)tricyclo[3.3.1.1^3,7]decan]-4-yl) phenyl phosphate] |  | 0.83 | BACKGROUND AT 0.4 Mn (TLU) [2, 4]: 0.93 TLU; BACKGROUND AT 0.4 Mn (TLU) [2, 5]: 0.77 TLU
COC1(c2cccc(OP(=O)(O)O)c2)OOC12C1CC3CC2CC(F)(C3)C1 (stereo not shown) [FSPD] | 0.45 RELATIVE LUMINOMETER UNITS |  | 
COC1(c2cccc(OP(=O)(O)O)c2)OOC12C1CC3CC2CC(I)(C3)C1 (stereo not shown) [I--AMPPD] |  | 0.46 | 
CCCCOC12CC3CC(C1)C1(OOC1(OC)c1cccc(OP(=O)(O)O)c1)C(C3)C2 (stereo not shown) [n-BuO-AMPPD] | 0.91 RELATIVE LUMINOMETER UNITS |  | 
